# This is one part of the list. Most entries show no effect beyond the scatter of the controls.
# Chains of the proteins cited; added tags and fusions are not shown. Lines headed by an entry give the natural chain unless they say otherwise; changes in a name come on top.
# UniProt O95229: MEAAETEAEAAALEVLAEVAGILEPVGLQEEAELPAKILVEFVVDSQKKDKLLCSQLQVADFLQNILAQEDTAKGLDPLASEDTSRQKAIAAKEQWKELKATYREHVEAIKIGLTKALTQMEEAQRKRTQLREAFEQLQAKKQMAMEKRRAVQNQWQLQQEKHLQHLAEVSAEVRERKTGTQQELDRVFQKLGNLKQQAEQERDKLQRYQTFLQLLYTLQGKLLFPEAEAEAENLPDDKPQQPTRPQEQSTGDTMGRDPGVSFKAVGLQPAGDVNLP
# UniProt O95071: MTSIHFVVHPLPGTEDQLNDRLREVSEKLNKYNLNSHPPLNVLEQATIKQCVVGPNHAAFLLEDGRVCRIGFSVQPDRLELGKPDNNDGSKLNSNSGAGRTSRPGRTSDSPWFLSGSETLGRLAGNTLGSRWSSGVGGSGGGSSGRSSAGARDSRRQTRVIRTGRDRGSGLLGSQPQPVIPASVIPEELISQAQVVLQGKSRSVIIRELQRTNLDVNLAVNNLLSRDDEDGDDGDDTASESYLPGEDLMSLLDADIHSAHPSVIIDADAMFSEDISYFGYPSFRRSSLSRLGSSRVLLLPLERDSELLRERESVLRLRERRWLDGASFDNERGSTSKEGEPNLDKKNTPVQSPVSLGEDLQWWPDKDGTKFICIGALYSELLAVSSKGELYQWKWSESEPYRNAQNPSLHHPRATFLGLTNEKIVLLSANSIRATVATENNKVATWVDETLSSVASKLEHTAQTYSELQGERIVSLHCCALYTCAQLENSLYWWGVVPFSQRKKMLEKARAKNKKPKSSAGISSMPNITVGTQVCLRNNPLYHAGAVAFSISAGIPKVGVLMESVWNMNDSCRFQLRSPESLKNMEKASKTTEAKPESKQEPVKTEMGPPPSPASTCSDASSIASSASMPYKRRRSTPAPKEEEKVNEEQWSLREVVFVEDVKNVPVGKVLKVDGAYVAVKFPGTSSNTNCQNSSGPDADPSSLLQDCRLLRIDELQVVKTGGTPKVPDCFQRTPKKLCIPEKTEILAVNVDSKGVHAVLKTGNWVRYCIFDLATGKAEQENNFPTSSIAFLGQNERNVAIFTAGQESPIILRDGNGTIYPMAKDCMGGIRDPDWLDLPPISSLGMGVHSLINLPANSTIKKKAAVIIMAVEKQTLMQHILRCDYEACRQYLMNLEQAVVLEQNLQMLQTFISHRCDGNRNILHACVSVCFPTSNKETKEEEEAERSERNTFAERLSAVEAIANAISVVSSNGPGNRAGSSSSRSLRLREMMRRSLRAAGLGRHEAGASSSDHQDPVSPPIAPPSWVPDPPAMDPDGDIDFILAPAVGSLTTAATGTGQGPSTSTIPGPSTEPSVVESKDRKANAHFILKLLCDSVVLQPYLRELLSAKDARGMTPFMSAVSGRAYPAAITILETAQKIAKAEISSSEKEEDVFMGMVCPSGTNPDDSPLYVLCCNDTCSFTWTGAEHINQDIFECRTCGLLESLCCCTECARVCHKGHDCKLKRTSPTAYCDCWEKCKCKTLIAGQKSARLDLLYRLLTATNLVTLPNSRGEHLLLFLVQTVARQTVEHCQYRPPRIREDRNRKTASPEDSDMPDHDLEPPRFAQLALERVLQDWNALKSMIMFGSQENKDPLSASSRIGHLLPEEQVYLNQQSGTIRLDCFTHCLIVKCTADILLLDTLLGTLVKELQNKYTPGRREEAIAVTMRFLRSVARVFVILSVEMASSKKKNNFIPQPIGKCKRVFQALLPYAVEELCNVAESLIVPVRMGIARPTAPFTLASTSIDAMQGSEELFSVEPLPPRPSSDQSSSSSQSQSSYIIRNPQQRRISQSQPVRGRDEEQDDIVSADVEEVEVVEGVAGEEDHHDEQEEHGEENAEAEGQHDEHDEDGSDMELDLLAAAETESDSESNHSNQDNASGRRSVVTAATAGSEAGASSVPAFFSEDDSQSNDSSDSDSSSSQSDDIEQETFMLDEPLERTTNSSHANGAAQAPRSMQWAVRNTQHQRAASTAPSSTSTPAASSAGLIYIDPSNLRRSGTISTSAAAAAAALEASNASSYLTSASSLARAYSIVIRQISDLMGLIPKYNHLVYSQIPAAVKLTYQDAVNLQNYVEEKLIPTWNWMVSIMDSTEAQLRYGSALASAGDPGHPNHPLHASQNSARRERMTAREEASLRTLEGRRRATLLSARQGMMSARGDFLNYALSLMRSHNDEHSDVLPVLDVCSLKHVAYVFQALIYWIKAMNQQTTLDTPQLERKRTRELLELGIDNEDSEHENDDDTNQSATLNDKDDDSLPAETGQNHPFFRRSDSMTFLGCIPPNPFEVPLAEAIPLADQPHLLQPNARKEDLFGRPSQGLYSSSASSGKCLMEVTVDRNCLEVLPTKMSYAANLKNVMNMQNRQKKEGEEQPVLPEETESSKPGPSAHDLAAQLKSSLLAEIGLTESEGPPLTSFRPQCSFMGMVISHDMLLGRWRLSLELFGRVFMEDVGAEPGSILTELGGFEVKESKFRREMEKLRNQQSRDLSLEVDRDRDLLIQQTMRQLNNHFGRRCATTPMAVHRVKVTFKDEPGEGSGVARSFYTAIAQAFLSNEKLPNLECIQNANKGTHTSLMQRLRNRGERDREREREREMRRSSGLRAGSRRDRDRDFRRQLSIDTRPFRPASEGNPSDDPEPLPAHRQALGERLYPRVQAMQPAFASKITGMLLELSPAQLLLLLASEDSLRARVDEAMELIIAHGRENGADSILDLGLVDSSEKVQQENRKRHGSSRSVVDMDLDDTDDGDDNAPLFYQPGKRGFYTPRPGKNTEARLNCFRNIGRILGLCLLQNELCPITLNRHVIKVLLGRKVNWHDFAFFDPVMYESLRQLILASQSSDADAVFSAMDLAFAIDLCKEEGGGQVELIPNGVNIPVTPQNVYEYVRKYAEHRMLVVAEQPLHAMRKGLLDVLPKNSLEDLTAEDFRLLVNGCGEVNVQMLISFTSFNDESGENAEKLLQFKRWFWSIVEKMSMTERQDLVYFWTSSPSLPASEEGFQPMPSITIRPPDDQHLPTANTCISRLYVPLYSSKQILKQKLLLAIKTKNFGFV
# UniProt O95159: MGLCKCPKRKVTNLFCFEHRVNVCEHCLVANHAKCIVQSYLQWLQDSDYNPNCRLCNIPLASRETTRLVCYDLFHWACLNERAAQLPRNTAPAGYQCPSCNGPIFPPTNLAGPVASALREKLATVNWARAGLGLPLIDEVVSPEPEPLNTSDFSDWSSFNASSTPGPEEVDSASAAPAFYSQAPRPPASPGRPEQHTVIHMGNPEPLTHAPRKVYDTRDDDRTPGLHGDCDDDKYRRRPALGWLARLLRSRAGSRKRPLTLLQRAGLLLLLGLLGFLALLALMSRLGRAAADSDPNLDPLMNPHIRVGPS
# UniProt O95905: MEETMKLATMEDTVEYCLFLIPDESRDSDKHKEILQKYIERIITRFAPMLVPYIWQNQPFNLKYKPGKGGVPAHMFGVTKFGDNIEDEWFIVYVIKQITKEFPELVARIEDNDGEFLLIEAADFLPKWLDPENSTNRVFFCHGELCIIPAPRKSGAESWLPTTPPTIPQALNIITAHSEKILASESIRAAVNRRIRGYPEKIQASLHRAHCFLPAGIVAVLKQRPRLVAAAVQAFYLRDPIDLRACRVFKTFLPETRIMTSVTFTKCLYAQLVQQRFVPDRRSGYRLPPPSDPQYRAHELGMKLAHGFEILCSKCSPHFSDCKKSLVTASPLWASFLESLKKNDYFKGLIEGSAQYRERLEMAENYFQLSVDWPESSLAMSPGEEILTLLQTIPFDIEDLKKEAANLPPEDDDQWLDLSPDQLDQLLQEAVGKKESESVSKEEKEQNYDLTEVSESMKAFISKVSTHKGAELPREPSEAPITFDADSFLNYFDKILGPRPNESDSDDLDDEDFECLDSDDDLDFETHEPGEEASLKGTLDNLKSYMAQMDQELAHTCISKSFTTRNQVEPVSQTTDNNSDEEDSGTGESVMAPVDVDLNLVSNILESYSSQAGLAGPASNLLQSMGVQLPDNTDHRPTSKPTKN
# UniProt O95983: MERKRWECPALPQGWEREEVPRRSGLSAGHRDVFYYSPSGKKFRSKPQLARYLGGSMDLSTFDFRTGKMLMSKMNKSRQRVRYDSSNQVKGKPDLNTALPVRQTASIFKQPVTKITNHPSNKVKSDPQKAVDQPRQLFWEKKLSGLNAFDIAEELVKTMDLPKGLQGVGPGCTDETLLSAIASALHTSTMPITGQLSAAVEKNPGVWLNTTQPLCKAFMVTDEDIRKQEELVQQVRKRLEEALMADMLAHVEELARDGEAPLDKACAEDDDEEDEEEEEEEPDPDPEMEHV
# UniProt O76003: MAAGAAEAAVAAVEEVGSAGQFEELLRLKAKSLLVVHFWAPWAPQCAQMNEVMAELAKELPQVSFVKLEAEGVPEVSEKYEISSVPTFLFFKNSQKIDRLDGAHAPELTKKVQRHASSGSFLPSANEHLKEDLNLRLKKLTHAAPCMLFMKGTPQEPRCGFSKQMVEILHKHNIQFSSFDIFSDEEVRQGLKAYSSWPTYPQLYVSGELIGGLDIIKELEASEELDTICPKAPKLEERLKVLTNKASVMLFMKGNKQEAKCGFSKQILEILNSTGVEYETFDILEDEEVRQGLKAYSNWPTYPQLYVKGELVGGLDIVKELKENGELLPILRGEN
# UniProt O95409: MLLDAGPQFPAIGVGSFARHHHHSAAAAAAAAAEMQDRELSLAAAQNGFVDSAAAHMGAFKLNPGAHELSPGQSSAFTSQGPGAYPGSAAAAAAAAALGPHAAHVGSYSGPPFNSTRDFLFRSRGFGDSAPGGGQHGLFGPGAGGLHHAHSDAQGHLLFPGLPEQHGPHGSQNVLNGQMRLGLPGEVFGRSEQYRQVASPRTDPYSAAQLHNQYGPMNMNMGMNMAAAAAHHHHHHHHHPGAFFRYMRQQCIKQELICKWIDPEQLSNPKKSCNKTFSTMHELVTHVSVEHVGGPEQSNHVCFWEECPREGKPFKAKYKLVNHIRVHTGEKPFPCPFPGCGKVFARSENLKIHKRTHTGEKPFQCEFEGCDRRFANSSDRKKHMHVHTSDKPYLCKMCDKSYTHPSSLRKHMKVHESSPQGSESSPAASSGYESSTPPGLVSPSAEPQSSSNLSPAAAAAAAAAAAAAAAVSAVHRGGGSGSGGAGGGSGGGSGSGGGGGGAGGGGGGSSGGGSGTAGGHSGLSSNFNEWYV
# UniProt O95487: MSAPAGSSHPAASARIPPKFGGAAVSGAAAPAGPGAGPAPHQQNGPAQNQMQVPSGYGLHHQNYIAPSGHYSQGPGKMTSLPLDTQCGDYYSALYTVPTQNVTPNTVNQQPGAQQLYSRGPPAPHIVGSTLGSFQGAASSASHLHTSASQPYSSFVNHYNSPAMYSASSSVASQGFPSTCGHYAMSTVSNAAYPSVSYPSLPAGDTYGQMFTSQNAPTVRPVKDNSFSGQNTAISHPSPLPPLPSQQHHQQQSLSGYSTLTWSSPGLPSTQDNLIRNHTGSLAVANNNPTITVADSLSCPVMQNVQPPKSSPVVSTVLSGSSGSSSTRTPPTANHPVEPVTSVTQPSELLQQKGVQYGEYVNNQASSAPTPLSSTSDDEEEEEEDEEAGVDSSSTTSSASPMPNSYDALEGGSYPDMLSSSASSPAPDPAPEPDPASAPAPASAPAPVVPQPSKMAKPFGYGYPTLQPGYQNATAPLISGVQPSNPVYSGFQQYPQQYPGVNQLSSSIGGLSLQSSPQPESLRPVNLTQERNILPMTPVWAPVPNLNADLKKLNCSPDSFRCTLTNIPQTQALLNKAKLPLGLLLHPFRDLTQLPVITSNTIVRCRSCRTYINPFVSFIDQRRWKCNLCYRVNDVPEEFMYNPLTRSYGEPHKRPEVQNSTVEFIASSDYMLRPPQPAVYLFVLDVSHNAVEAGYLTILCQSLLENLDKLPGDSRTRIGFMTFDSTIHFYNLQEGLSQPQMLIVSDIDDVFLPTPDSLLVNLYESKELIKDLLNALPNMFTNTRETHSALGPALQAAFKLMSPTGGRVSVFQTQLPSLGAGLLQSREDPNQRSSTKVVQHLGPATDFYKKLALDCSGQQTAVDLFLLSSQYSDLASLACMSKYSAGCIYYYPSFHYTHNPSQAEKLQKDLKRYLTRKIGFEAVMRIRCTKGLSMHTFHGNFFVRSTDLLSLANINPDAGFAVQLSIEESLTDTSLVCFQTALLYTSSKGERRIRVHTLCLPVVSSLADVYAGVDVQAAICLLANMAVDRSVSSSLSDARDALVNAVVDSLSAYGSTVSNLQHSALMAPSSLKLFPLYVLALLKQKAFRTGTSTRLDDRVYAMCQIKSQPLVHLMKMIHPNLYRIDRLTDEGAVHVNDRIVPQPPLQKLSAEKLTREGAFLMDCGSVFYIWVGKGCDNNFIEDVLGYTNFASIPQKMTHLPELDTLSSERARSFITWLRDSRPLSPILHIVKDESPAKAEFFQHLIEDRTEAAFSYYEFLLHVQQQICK
# Compound: CN[C@@H]1C[C@H]2O[C@@](C)([C@@H]1OC)n1c3ccccc3c3c4c(c5c6ccccc6n2c5c31)C(=O)NC4 [staurosporine]
# Experiment: log2 fold change of tryptic peptide abundance, ligand vs vehicle (limited proteolysis) (log2 ratio); higher = more trypsin-susceptible (destabilized)
# Details: ligand concentration: 20 uM; sample: K562 cleared lysate; digestion: 4 min, 22 C (HT-PELSA RT4min, Orbitrap Astral)
row,Target,log2 fold change
1,"ZWINT (peptide sequence: EHVEAIKIGLTK, peptide start residue: 105) (UniProt O95229)",0.626
2,"USP1 (peptide sequence: PGVIPSESNGLSR, peptide start residue: 2) (UniProt O94782)",0.163
3,"UniProt O95071 (peptide sequence: EVVFVEDVK, peptide start residue: 655)",-0.16
4,"ZFPL1 (peptide sequence: DDDRTPGLHGDCDDDKYR, peptide start residue: 219) (UniProt O95159)",-0.337
5,"NFAT5 (peptide sequence: IVVQPETQHR, peptide start residue: 284) (UniProt O94916)",0.463
6,"ECD (peptide sequence: IMTSVTFTK, peptide start residue: 258) (UniProt O95905)",-0.123
7,"MBD3 (peptide sequence: YLGGSMDLSTFDFR, peptide start residue: 52) (UniProt O95983)",-0.465
8,"GLRX3 (peptide sequence: ASVMLFMK, peptide start residue: 246) (UniProt O76003)",0.0816
9,"UniProt O95409 (peptide sequence: LGLPGEVFGR, peptide start residue: 181)",0.167
10,"SEC24B (peptide sequence: LTDEGAVHVNDR, peptide start residue: 1127) (UniProt O95487)",0.321
11,"UniProt O75934 (peptide sequence: QQHGEANKENIRQDF, peptide start residue: 211)",0.215

# Two neighbouring records from above:
row,Target,log2 fold change
1,"ZWINT (peptide sequence: EHVEAIKIGLTK, peptide start residue: 105) (UniProt O95229)",0.626
2,"USP1 (peptide sequence: PGVIPSESNGLSR, peptide start residue: 2) (UniProt O94782)",0.163

# From the supplement of paper PMC12819154, “High-throughput peptide-centric local stability assay extends protein–ligand identification to membrane proteins, tissues and bacteria” (Nature Structural & Molecular Biology, 2025)
